Measurements reported in PubChem BioAssay AID1259254 (NCATS, 2017)
Aim: 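Finding genes that stop cells copying their DNA twice in one cycle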 (primary screen). System: human HCT116 colorectal cancer cells. Reagent: single siRNA against human genes. Time to read-out: 3 days. Measurement: 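Nuclei stained with Hoechst and imaged; cell-cycle phase assigned by DNA content; G2 share scaled per plate, non-targeting siRNA 0%, GMNN siRNA 100%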. Reading the numbers: G2 robust z-score and G2 cells, % of GMNN control: higher = more G2 cells, more excess DNA replication; raw share of cells in G2: higher = larger share of cells with G2 DNA content. Active means: 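Active siRNAs have a G2 robust z of 5 or more median absolute deviations over the median, which in these data means about 38% or higher of GMNN control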.
Here is an unselected part of about 59,000 deposited reagents. About 1,550 of them (2.6%) were called active. 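G2 share is only a proxy for re-replication; each gene was hit by three separate siRNAs, and active genes were retested.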 The raw values are shown without normalisation. The numbers tell different reagents against one gene apart. No sequences are given here. Not given: the amount of reagent.

The first 3 records as a preview:
| gene | reagent no. | G2 robust z-score | G2 cells, % of GMNN control | raw share of cells in G2 (%) | activity call |
| --- | --- | --- | --- | --- | --- |
| PCSK6 (GeneID 5046) | 1 | -0.905 | -3.4 | 2.64 | inactive |
| PCSK6 (GeneID 5046) | 2 | -0.0646 | 2.51 | 6.44 | inactive |
| PCSK6 (GeneID 5046) | 3 | -0.284 | 0.972 | 5.25 | inactive |

Main list, repeating the preview:
| gene | reagent no. | G2 robust z-score | G2 cells, % of GMNN control | raw share of cells in G2 (%) | activity call |
| --- | --- | --- | --- | --- | --- |
| PCSK6 (GeneID 5046) | 1 | -0.905 | -3.4 | 2.64 | inactive |
| PCSK6 (GeneID 5046) | 2 | -0.0646 | 2.51 | 6.44 | inactive |
| PCSK6 (GeneID 5046) | 3 | -0.284 | 0.972 | 5.25 | inactive |
| B3GALT4 (GeneID 8705) | 1 | 0.276 | 4.91 | 6.46 | inactive |
| B3GALT4 (GeneID 8705) | 2 | -0.664 | -1.71 | 4.66 | inactive |
| B3GALT4 (GeneID 8705) | 3 | -0.548 | -0.886 | 4.13 | inactive |
| RALGAPA2 (GeneID 57186) | 1 | -0.608 | -1.31 | 3.83 | inactive |
| RALGAPA2 (GeneID 57186) | 2 | 0.0855 | 3.57 | 6.16 | inactive |
| RALGAPA2 (GeneID 57186) | 3 | 0.187 | 4.29 | 4.39 | inactive |
| KCTD16 (GeneID 57528) | 1 | 0.0926 | 3.62 | 4.07 | inactive |
| KCTD16 (GeneID 57528) | 2 | -0.995 | -4.04 | 4.09 | inactive |
| KCTD16 (GeneID 57528) | 3 | -0.854 | -3.04 | 2.68 | inactive |
| OR5P2 (GeneID 120065) | 1 | -0.653 | -1.63 | 3.44 | inactive |
| OR5P2 (GeneID 120065) | 2 | 5.02 | 38.3 | 14.7 | active |
| OR5P2 (GeneID 120065) | 3 | -0.0132 | 2.87 | 2.66 | inactive |
| NUDT9 (GeneID 53343) | 1 | -1.23 | -5.66 | 1.63 | inactive |
| NUDT9 (GeneID 53343) | 2 | -1.1 | -4.77 | 3.79 | inactive |
| NUDT9 (GeneID 53343) | 3 | -0.352 | 0.493 | 4.43 | inactive |
| MMP25 (GeneID 64386) | 1 | -0.466 | -0.313 | 5.47 | inactive |
| MMP25 (GeneID 64386) | 2 | 4.98 | 38 | 17 | inactive |
| MMP25 (GeneID 64386) | 3 | 2.65 | 21.6 | 12.3 | inactive |
| EIF3J-DT (GeneID 645212) | 1 | -0.184 | 1.67 | 4.27 | inactive |
| EIF3J-DT (GeneID 645212) | 2 | -0.361 | 0.43 | 3.43 | inactive |
| EIF3J-DT (GeneID 645212) | 3 | 0.173 | 4.19 | 4.37 | inactive |
| RBFOX3 (GeneID 146713) | 1 | -0.752 | -2.32 | 2.26 | inactive |
| RBFOX3 (GeneID 146713) | 2 | -0.46 | -0.266 | 3.74 | inactive |
| RBFOX3 (GeneID 146713) | 3 | -0.702 | -1.98 | 2.3 | inactive |
| RBFOX3 (GeneID 146713) | 4 | 0.967 | 9.77 | 7.36 | inactive |
| RBFOX3 (GeneID 146713) | 5 | 2.27 | 19 | 10.1 | inactive |
| RBFOX3 (GeneID 146713) | 6 | 2.98 | 23.9 | 10.1 | inactive |
| TEX14 (GeneID 56155) | 1 | -1.08 | -4.66 | 4.14 | inactive |
| TEX14 (GeneID 56155) | 2 | 2.73 | 22.1 | 13.2 | inactive |
| TEX14 (GeneID 56155) | 3 | 0.345 | 5.39 | 5.41 | inactive |
| ITGAE (GeneID 3682) | 1 | -1.2 | -5.45 | 3.61 | inactive |
| ITGAE (GeneID 3682) | 2 | 1.75 | 15.3 | 9.8 | inactive |
| ITGAE (GeneID 3682) | 3 | -0.286 | 0.952 | 5.39 | inactive |
| SNTG2 (GeneID 54221) | 1 | -0.521 | -0.698 | 5.64 | inactive |
| SNTG2 (GeneID 54221) | 2 | 0.29 | 5.01 | 6.09 | inactive |
| SNTG2 (GeneID 54221) | 3 | -0.219 | 1.43 | 4.35 | inactive |
| SDHC (GeneID 6391) | 1 | -0.419 | 0.0167 | 5.69 | inactive |
| SDHC (GeneID 6391) | 2 | 0.38 | 5.64 | 6.48 | inactive |
| SDHC (GeneID 6391) | 3 | -0.278 | 1.01 | 4.29 | inactive |
| SEC22A (GeneID 26984) | 1 | -0.441 | -0.134 | 3.8 | inactive |
| SEC22A (GeneID 26984) | 2 | 0.622 | 7.35 | 7.33 | inactive |
| SEC22A (GeneID 26984) | 3 | -0.3 | 0.856 | 3.52 | inactive |
| MND1 (GeneID 84057) | 1 | -0.33 | 0.645 | 4.32 | inactive |
| MND1 (GeneID 84057) | 2 | 0.691 | 7.83 | 5.78 | inactive |
| MND1 (GeneID 84057) | 3 | -0.308 | 0.798 | 2.65 | inactive |
| CNOT12 (GeneID 85456) | 1 | -0.09 | 2.33 | 5.07 | inactive |
| CNOT12 (GeneID 85456) | 2 | -0.588 | -1.17 | 2.63 | inactive |
| CNOT12 (GeneID 85456) | 3 | 0.575 | 7.02 | 5.15 | inactive |
| NOA1 (GeneID 84273) | 1 | -0.941 | -3.66 | 2.89 | inactive |
| NOA1 (GeneID 84273) | 2 | 2.47 | 20.3 | 9.48 | inactive |
| NOA1 (GeneID 84273) | 3 | -0.0908 | 2.33 | 3.11 | inactive |
| RRN3 (GeneID 54700) | 1 | 0.401 | 5.79 | 4.84 | inactive |
| RRN3 (GeneID 54700) | 2 | -0.758 | -2.37 | 4.84 | inactive |
| RRN3 (GeneID 54700) | 3 | 3.21 | 25.5 | 11.7 | inactive |
| SLC13A2 (GeneID 9058) | 1 | -0.702 | -1.97 | 3.64 | inactive |
| SLC13A2 (GeneID 9058) | 2 | -0.0141 | 2.87 | 6.27 | inactive |
| SLC13A2 (GeneID 9058) | 3 | 0.946 | 9.62 | 8.15 | inactive |
| CHRNB1 (GeneID 1140) | 1 | 4.38 | 33.8 | 17.6 | inactive |
| CHRNB1 (GeneID 1140) | 2 | -0.0837 | 2.38 | 5.59 | inactive |
| CHRNB1 (GeneID 1140) | 3 | -1.21 | -5.54 | 2.21 | inactive |
| KCNAB3 (GeneID 9196) | 1 | -0.0293 | 2.76 | 6.29 | inactive |
| KCNAB3 (GeneID 9196) | 2 | 3.46 | 27.3 | 14 | inactive |
| KCNAB3 (GeneID 9196) | 3 | -1.18 | -5.34 | 2.29 | inactive |
| PHGR1 (GeneID 644844) | 1 | 1.05 | 10.4 | 7 | inactive |
| PHGR1 (GeneID 644844) | 2 | -0.548 | -0.888 | 2.89 | inactive |
| PHGR1 (GeneID 644844) | 3 | 0.233 | 4.61 | 5.39 | inactive |
